Measured values as given in the supplement of paper PMC10727501.
The other results are listed elsewhere or left out. This data set is noisy: repeats of one test often differ as much as different tests do.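 Free-swimming zebrafish larvae were scored for O-bend response probability to dark flashes (naive: first five; training: remaining flashes of four 60-flash blocks; test: later 60-flash block) and for turning toward alternating leftward/rightward LED motion (OMR). Six treated larvae were compared with sixty 0.1% DMSO controls; |SSMD|≥2 defined a hit.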

Test system: Danio rerio larvae (5 dpf, TLF)
Assay: OMR-Perf (SSMD vs DMSO vehicle); higher = higher than vehicle (e.g. higher dark-flash O-bend response probability, or better optomotor performance)
Settings: 10 µM; pre-incubation: 30-90 min

Structure (SMILES)	OMR-Perf
CS(=O)(=O)O.Cn1cc(C2=C(c3cn(CCCSC(=N)N)c4ccccc34)C(=O)NC2=O)c2ccccc21 [Ro 31-8220 Mesylate]	0.326
C[C@@H]1CN(c2c(F)c(F)c3c(=O)c(C(=O)O)cn(C4CC4)c3c2F)C[C@@H](C)N1 [Orbifloxacin]	-0.251
[C@@H]1(C[C@@]2(N([C@@](C1)(CC2)[H])C)[H])OC(C(C3C=CC=CC=3)O)=O.Br (stereo not given in full) [Homatropine Bromide]	-0.836
CCCCc1ncc(/C=C(\Cc2cccs2)C(=O)O)n1Cc1ccc(C(=O)O)cc1.CS(=O)(=O)O [Eprosartan Mesylate]	-0.0987
CCOC(=O)c1ccc(OC(=O)CCCCCNC(=N)N)cc1.CS(=O)(=O)O [Gabexate Mesylate]	-0.274
O=C(O)c1cc(=O)[nH]c(=O)[nH]1 [Orotic acid (6-Carboxyuracil)]	-0.638
Cc1cn([C@@H]2C[C@@H](O)[C@H](CO)O2)c(=O)[nH]c1=O [Telbivudine]	-0.365
C[C@@H]1O[C@@H](OC[C@H]2O[C@@H](Oc3c(-c4ccc(O)c(O)c4)oc4cc(O)cc(O)c4c3=O)[C@@H](O)[C@@H](O)[C@@H]2O)[C@@H](O)[C@H](O)[C@H]1O [Rutin]	-0.531
CC(C)c1ccc(NC(=O)Cn2cnc3c2c(=O)n(C)c(=O)n3C)cc1	-0.454
NC(Cc1c[nH]c2ccc(O)cc12)C(=O)O (stereo not given) [5-hydroxytryptophan (5-HTP)]	0.19

Rewritten with bars between the fields: entries from further up
Structure (SMILES) | OMR-Perf
CS(=O)(=O)O.Cn1cc(C2=C(c3cn(CCCSC(=N)N)c4ccccc34)C(=O)NC2=O)c2ccccc21 [Ro 31-8220 Mesylate] | 0.326
CC(C)c1ccc(NC(=O)Cn2cnc3c2c(=O)n(C)c(=O)n3C)cc1 | -0.454
